The entries are a selection whose mix differs from that of the whole data set. Single values of this set are uncertain.

Protein sequences, listed by entry. Tags and fused reporters are not part of them. Lines headed by an entry give the natural chain unless they say otherwise; changes in a name come on top.
UniProt Q8WXD5: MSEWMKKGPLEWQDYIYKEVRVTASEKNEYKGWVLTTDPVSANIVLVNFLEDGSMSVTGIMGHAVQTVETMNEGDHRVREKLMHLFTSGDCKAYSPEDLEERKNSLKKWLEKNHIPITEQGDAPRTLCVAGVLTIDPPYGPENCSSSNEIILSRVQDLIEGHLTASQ
UniProt Q8NBU5: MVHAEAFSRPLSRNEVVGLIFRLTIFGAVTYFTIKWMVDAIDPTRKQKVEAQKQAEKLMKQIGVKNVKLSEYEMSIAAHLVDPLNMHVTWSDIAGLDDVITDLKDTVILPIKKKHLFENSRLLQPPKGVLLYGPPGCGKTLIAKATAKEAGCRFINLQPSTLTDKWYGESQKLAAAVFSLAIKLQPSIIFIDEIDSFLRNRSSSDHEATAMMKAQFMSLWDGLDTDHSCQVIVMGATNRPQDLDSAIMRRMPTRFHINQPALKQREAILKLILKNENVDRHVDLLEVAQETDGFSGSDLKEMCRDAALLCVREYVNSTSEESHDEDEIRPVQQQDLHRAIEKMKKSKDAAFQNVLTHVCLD
UniProt Q8TDY2, whole entry: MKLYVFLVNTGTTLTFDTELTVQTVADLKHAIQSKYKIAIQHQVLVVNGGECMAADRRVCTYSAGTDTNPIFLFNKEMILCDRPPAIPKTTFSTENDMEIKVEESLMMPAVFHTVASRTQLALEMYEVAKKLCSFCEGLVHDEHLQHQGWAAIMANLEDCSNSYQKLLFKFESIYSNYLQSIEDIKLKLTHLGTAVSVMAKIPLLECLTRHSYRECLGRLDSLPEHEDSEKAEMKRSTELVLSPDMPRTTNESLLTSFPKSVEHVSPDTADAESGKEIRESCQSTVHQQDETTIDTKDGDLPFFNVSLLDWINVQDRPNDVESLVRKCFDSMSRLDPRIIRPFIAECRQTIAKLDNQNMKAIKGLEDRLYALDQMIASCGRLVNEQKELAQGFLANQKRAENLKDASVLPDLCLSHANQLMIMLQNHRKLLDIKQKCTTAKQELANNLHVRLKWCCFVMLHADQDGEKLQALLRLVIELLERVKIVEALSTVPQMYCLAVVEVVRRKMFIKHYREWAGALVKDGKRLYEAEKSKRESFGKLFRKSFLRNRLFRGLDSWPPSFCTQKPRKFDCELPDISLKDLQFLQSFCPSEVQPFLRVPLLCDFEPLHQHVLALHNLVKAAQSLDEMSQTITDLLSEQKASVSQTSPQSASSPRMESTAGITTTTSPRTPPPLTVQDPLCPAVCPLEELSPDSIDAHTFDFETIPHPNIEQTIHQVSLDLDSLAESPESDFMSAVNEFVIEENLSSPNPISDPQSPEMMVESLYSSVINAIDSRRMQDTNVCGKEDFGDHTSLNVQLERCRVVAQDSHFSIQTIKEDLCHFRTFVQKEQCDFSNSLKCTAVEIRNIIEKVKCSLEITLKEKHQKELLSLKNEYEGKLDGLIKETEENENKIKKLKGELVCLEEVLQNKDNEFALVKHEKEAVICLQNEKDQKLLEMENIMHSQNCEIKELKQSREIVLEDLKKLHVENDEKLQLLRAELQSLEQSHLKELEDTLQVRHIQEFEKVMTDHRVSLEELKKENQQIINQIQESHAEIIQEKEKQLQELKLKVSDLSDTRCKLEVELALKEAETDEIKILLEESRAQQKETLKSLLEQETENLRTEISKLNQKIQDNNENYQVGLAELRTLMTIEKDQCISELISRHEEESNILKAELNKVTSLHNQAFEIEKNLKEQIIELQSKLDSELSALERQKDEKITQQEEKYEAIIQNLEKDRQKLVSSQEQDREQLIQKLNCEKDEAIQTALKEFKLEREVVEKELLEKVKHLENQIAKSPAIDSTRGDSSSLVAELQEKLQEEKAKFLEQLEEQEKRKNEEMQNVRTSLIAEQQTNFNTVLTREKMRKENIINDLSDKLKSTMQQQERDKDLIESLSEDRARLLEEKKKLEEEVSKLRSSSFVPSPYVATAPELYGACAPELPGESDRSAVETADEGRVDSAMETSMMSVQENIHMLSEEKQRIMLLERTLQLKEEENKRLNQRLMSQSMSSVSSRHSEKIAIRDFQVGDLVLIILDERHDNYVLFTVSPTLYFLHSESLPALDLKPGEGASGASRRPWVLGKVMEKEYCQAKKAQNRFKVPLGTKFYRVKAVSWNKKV
UniProt Q8WUB8: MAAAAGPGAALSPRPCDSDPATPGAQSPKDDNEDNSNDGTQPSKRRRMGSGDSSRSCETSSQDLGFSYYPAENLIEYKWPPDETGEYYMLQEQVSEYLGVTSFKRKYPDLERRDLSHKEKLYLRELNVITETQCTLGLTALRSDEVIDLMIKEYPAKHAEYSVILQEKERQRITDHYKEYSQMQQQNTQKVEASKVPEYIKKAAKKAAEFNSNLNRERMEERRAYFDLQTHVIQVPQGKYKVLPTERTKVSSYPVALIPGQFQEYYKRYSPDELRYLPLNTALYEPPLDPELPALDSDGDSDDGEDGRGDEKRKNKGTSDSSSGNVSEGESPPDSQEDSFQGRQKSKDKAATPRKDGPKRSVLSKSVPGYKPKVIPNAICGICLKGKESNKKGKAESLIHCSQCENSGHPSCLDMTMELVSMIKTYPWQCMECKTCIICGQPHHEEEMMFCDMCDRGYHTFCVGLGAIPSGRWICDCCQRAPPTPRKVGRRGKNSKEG
UniProt Q8N5A5: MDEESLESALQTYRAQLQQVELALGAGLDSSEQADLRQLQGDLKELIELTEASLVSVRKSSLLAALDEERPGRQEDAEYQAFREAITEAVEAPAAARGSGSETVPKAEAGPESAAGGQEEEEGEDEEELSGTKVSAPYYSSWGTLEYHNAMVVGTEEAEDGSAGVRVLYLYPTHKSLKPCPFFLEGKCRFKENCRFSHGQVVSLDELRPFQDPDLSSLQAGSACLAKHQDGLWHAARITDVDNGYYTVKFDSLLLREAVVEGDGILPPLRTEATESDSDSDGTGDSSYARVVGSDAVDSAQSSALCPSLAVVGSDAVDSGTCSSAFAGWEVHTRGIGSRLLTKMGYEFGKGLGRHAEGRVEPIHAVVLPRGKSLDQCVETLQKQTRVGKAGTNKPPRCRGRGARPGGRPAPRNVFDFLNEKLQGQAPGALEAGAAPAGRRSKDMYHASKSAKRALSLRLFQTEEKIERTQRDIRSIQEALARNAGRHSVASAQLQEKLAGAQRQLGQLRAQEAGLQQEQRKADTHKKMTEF
UniProt Q8TAF3: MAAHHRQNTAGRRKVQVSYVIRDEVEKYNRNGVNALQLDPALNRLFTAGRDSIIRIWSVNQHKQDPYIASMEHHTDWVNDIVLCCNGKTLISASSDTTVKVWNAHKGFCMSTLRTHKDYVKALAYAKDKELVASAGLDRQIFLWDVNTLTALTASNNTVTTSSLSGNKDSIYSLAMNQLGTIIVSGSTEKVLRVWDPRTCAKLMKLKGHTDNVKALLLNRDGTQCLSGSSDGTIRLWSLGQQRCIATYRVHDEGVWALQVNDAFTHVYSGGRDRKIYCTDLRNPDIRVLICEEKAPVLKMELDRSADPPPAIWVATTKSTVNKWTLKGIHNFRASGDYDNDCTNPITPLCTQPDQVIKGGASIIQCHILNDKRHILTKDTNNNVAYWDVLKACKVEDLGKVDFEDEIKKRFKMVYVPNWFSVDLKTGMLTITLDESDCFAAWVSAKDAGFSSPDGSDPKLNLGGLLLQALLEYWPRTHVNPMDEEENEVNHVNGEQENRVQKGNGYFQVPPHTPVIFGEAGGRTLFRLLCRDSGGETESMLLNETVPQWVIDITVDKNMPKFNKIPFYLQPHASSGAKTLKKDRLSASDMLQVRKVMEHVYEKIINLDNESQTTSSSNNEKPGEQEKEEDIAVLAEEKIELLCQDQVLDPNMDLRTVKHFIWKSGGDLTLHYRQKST
UniProt Q8WVV9: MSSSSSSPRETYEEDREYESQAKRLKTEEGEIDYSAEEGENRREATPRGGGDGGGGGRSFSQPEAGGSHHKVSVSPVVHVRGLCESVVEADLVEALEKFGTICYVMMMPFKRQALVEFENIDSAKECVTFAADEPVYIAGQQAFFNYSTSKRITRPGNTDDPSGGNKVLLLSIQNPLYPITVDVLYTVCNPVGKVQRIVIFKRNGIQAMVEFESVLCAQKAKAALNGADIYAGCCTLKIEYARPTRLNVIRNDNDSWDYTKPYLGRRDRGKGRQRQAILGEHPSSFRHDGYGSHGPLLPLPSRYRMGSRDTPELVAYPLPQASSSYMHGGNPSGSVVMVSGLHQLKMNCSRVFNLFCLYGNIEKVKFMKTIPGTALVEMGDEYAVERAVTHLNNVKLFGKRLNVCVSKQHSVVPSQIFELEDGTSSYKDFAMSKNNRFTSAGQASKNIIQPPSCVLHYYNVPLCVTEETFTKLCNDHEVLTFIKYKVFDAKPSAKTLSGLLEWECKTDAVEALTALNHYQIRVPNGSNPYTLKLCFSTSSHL
UniProt Q8N8R5: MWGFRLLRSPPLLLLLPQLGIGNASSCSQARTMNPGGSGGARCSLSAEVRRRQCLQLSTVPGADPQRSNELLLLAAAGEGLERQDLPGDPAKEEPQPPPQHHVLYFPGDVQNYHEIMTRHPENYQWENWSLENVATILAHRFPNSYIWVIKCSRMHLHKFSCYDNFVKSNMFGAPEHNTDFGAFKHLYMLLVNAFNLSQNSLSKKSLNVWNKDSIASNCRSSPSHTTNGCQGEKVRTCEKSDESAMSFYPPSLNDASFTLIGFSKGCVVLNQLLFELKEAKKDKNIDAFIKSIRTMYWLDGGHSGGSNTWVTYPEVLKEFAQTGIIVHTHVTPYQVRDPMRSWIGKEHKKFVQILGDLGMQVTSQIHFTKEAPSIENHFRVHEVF
UniProt Q8WXI9: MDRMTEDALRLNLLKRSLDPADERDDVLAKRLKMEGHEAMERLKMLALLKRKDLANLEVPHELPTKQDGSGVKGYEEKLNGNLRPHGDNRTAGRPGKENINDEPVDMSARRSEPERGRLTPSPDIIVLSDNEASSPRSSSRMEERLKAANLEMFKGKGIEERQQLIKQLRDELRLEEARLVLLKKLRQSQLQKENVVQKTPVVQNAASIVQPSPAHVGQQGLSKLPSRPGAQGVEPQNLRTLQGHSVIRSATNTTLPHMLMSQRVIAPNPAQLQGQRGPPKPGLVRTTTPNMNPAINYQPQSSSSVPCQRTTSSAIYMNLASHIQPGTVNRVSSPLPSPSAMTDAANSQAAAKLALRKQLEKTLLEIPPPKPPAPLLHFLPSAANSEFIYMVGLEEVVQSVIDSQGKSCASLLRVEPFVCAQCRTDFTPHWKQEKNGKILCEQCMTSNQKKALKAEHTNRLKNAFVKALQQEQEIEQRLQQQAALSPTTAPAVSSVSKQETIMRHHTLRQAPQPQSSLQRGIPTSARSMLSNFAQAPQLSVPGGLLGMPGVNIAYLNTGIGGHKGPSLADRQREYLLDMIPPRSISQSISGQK
UniProt Q8TEX9: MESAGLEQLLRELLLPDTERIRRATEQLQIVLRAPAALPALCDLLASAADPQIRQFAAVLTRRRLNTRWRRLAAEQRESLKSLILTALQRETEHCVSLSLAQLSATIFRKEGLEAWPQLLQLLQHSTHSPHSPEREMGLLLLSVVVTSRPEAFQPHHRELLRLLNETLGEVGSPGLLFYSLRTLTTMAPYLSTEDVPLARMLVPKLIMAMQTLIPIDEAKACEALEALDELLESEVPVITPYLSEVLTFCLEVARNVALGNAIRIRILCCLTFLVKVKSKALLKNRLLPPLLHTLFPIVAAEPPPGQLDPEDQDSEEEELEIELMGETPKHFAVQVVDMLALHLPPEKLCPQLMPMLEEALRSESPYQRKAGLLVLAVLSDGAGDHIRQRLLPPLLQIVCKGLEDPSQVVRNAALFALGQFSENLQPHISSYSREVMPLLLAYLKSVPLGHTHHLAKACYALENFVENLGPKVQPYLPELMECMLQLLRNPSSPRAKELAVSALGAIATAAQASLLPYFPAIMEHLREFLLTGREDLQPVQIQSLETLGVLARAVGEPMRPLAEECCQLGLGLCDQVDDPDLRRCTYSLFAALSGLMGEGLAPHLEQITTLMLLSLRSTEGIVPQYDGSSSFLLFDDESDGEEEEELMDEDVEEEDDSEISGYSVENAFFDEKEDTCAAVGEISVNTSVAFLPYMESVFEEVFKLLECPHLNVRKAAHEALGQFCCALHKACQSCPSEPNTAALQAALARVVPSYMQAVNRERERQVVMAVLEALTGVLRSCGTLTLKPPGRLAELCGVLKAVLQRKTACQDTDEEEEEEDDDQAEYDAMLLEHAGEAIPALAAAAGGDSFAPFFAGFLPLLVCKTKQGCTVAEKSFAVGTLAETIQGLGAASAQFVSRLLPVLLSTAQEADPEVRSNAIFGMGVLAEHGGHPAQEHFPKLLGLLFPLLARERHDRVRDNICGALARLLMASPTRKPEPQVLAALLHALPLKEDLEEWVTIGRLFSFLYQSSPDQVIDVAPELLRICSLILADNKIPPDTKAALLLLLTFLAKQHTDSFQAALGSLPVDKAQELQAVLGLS

Compound in this assay: COC(=O)/C=C/c1ccccc1 [methyl cinnamate]
The assay can be described thus: log2 ratio of iodoacetamide-alkyne labeling of the cysteine site, DMSO over compound (competition); higher = stronger covalent engagement of the cysteine by the compound, active = 1 or more. The following applies: 500 µM; treatment time 1 h; system: HEK293T cell lysate. A digest of the protocol:
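Reporter intensities give each cysteine's log2 competition ratio as the mean of control channels over the mean of compound channels. The samples were HEK293T lysate (2 mg/mL) given vehicle or electrophile (500 µM, 1 h, ambient temperature), then iodoacetamide alkyne (1 h), followed by click coupling to sCIP-TMT reagents, pooling, trypsin digestion overnight at 37 °C, streptavidin enrichment, acid elution, Orbitrap Eclipse LC-MS/MS with FAIMS and FragPipe quantification. Duplicate channels and three replicates were run, and cysteines quantified in only one replicate were discarded.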
Take SUPT20H C255 (UniProt Q8NEM7): the “log2 ratio of iodoacetamide-alkyne labeling” value (shortened to “log2 ratio”) is inactive: 0.16. For UniProt Q8NFC6_C2570 the value was inactive: 0.301; for GEMIN6 C128 (UniProt Q8WXD5), inactive: 0.185; for UniProt Q8NBU5_C303, inactive: 0.0857. As for RB1CC1 C1413 (UniProt Q8TDY2), the “log2 ratio” value was inactive: 0.212. Next, TXNDC5 C89 (UniProt Q8NBS9): inactive: -0.00739; PHF10 C383 (UniProt Q8WUB8): inactive: 0.16.

On to UniProt Q8NHM5_C533, for which the “log2 ratio” value is inactive: 0.0746.

On to UniProt Q8NBJ5_C412, for which the “log2 ratio” value is inactive: -0.0697. Next, ZGPAT C377 (UniProt Q8N5A5): inactive: 0.244. For UniProt Q8WZA9_C373 the value was inactive: 0.636; for THOC2 C773 (UniProt Q8NI27), inactive: -0.27; for RDH10 C272 (UniProt Q8IZV5), inactive: 0.117. Consider WDR48 C342 (UniProt Q8TAF3), for which the “log2 ratio” value was inactive: 0.352.

With VPS8 C1371 (UniProt Q8N3P4), the “log2 ratio” value was inactive: 0.207.

For the target UniProt Q8WVV9_C84, the “log2 ratio” value was inactive: -0.252. Next, SUPT20H C298 (UniProt Q8NEM7): inactive: 0.294; SYNE2 C5212 (UniProt Q8WXH0): inactive: 0.115.

As for UniProt Q8NEB9_C336, the “log2 ratio” value is inactive: 0.14. With C2orf69 C54 (UniProt Q8N8R5), the “log2 ratio” value was inactive: 0.221. Next, GATAD2B C423 (UniProt Q8WXI9): inactive: 0.0732; UniProt Q8TEJ3_C428: inactive: 0.112; IPO4 C42 (UniProt Q8TEX9): inactive: -0.00685.

The values are drawn from the supplement of paper PMC11006884.
